# PubChem BioAssay AID1259425 | University of Nebraska Medical Center – 2018
# Purpose: 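Seek colon cancer weak points whose silencing resembles KSR1 loss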 (primary screen)
# Cell system: HCT116 human colon cancer cells
# Knock-down reagent: siRNA pool against human genes, 50 nM siRNA
# Measured: 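mRNA of six signature genes measured together by branched-DNA assay after 50 nM siRNA pool, blank removed, divided by geometric mean of two housekeeping genes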
# Reading the numbers: BNIP3L mRNA: higher = more BNIP3L transcript after knockdown; NDRG1 mRNA: higher = more NDRG1 transcript after knockdown; BNIP3 mRNA: higher = more BNIP3 transcript after knockdown; ALDOC mRNA: higher = more ALDOC transcript after knockdown; ACSL5 mRNA: higher = more ACSL5 transcript after knockdown
# The whole screen tested about 14,000 reagents; shown is a part drawn at random. Not given: the time to read-out.
gene,"BNIP3L mRNA, set 1","NDRG1 mRNA, set 1","BNIP3 mRNA, set 1","ALDOC mRNA, set 1","ACSL5 mRNA, set 1"
TSLIG2,0.0576,0.201,0.248,0.0317,0.152
PRKCA,0.197,0.139,0.253,0.00612,0.543
ERO1B,0.099,0.0541,0.187,0.0205,0.159
DNAJC12,0.13,0.46,0.352,0.0537,0.427
PYY2,0.409,0.0636,0.625,0.0421,0.0792
CDC26,0.141,0.123,0.363,0.0273,0.264
PFKFB4,0.0669,0.0478,0.21,0.00595,0.0691
PTGER2,0.173,0.456,0.459,0.0933,0.283

Looked up above:
Under “BNIP3 mRNA, set 1”, DNAJC12 is entered as 0.352
PRKCA, ALDOC mRNA, set 1 → 0.00612

Further results follow:
gene,"BNIP3L mRNA, set 1","NDRG1 mRNA, set 1","BNIP3 mRNA, set 1","ALDOC mRNA, set 1","ACSL5 mRNA, set 1"
TMBIM1,0.141,0.207,0.0986,0.052,0.104
DGAT2,0.0767,0.457,0.254,0.0419,0.159
OBP2A,0.0877,0.198,0.361,0.0286,0.0779
ULK3,0.134,0.0929,0.248,0.00697,0.0963
EPRS1,0.176,0.0853,0.335,0.0314,0.195
EAPP,0.0696,0.023,0.346,0.0301,0.129
CD33,0.117,0.284,0.15,0.0236,0.133
TP53I11,0.152,0.175,0.302,0.0321,0.0467
TRPC5,0.0901,0.193,0.29,0.0104,0.123
SETD1B,0.149,0.236,0.352,0.0306,0.264
CROT,0.0605,0.248,0.204,0.00428,0.186
SMC5,0.114,0.213,0.37,0.0609,0.315
